In patent US20150259419A1 (PROTHENA BIOSCIENCES, published 2015):
These are yes or no findings as the source states them, for the method shown. Some results given as binding are weak or reduced against the parent protein; the word gives no strength. For some of these results: Tags and fused reporters may be left off the sequences shown.

What was measured:
[1] = target: T1, full length MCAMhFc protein (extracellular domain of human MCAM fused to human IgG) (human) (UniProt P43121); test: summary of Examples 2 and 3
T1 sequence: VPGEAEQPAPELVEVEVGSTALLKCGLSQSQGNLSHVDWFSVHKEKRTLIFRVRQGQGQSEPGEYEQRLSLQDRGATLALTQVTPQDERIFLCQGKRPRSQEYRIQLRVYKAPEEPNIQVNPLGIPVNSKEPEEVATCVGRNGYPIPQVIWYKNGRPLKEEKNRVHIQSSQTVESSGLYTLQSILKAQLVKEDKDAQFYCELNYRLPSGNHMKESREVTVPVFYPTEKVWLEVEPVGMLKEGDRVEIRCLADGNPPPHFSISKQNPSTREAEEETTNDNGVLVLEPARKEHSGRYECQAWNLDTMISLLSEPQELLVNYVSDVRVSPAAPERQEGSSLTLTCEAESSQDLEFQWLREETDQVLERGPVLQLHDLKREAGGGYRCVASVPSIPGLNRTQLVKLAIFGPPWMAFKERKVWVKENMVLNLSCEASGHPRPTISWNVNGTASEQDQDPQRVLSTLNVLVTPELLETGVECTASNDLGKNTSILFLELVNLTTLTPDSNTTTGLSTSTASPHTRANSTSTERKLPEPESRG

[2] = target: T2, human MCAM, full length, expressed on transfected cells (human) (UniProt P43121); test: affinity experiments, data not shown
T2 sequence: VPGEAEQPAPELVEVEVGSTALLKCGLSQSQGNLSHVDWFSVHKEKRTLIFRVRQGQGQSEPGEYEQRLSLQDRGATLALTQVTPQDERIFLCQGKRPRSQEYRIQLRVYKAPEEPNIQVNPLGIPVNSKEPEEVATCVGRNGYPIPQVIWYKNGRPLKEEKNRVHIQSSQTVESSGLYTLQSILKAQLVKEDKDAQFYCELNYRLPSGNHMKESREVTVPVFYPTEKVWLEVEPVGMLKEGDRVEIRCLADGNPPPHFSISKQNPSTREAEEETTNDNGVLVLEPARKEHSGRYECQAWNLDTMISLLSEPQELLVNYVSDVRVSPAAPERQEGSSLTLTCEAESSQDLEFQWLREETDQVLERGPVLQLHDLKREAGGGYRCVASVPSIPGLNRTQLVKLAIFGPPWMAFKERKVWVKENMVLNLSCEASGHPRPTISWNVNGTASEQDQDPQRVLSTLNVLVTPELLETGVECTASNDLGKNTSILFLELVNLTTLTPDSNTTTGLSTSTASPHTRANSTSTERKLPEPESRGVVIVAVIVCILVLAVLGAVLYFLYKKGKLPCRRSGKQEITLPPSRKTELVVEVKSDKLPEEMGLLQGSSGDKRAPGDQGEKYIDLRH

[3] = target: T3, combination of human MCAM domains 1 and 2 (MCAMhFc domain construct) (human) (UniProt P43121); test: ForteBio Octet Red, MCAMhFc domains on anti-human IgG Fc biosensors, antibody at 5 ug/ml
T3 sequence: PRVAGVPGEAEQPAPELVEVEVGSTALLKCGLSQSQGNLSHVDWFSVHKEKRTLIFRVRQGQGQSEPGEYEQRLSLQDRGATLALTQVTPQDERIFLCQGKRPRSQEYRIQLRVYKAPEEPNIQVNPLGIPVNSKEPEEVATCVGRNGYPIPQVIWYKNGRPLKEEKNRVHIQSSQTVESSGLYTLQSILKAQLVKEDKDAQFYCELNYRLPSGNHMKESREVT

B1: rat anti-human MCAM monoclonal antibody clone 2107.4.10 (antibody, V domains shown)
VH: QVQLKESGPGLVQSSQTLSLTCTVSGFSLTSNGVSWVRQPPGKGLEWIAAISSGGSTYYNSAFKSRLSISRNTSKSQVLLKMNSLQTEDTGMYFCARHRPFYFDYWGQGVMVTVSS
VL: DIQVTQSPSLLSASVGDRVTLNCKGSQNIYKSLAWFRLKRGEAPKLLIYDANSLQTGIPSRFSGSGSGTDFTLTITSLQPEDVATYFCQQYYSGYTFGAGTKLELK
binding [1]: binds
binding [2]: binds
binding [3]: binds

B2: rat anti-human MCAM monoclonal antibody clone 2120.4.19 (antibody, V domains shown)
VH: QVQLKESGPGLVQPSQTLSLTCTVSGFSLTSNGVSWVRQPPGKGLEWIAAISSGGTTYYNSAFKSRLSISRNTSKSQVLLKMNSLQTEDTAMYFCARRYGYGWYFDFWGPGTMVTVSS
VL: DIRMTQSPSLLSASVGDRVTLNCKASQNIYNSLAWYQQKLGEGPKVLIPNANSLQTGIPSRFSGSGSGTDFTLTISSLQPEDFATYFCQQFYSGYTFGAGTKLELK
notes: also called m2120
binding [3]: binds
